In one assay the test system is P. falciparum Dd2-HLH. The experiment in a line: microbe, parasite or virus in culture. The format is cell-based. The conditions noted are these: Plasmodium falciparum, DD2, 48 h, read-out: Blood stage 48h EC50.
Assay [1] has as its system P. berghei-luciferase sporozoites. The experiment in a line: microbe, parasite or virus in culture. The format is cell-based. The conditions noted are these: Plasmodium berghei, HepG2, 48 h, read-out: Liver stage 48h EC50.

In PMC11145868, “Protein target similarity is positive predictor of in vitro antipathogenic activity: a drug repurposing strategy for Plasmodium falciparum” (Journal of Cheminformatics, 2024) one finds EC50 data, which are given here for one molecule.

The term EC50 denotes the concentration needed to bring the measured effect to its halfway point. Take `COc1ccc(CCN2CCC(Nc3nc4ccccc4n3Cc3ccc(F)cc3)CC2)cc1` [Astemizole]: the EC50 in the assay on P. falciparum Dd2-HLH worked out at 342 nM; in assay [1], 50 nM.
